Patent publication US8119681B2, “2-[1-phenyl-5-hydroxy or methoxy-4alpha-methyl-hexahydrocyclopenta [ƒ]indazole-5-YL]ethyl phenyl derivatives as glucocorticoid receptor ligands” (Merck Sharp & Dohme Corp., priority 2006, dated 2012)
Some of these results come from one statement about several compounds together.

What was measured:
human GR = target: T1, human GR (Homo sapiens, UniProt P04150); assay: Trans-Activation Modulation of Glucocorticoid Receptor (GRAMMER), MMTV-LUC reporter gene; type: cell-based; design: endogenous in cells; conditions: GRAMMER versus GITAR
T1 sequence (P04150 1-777): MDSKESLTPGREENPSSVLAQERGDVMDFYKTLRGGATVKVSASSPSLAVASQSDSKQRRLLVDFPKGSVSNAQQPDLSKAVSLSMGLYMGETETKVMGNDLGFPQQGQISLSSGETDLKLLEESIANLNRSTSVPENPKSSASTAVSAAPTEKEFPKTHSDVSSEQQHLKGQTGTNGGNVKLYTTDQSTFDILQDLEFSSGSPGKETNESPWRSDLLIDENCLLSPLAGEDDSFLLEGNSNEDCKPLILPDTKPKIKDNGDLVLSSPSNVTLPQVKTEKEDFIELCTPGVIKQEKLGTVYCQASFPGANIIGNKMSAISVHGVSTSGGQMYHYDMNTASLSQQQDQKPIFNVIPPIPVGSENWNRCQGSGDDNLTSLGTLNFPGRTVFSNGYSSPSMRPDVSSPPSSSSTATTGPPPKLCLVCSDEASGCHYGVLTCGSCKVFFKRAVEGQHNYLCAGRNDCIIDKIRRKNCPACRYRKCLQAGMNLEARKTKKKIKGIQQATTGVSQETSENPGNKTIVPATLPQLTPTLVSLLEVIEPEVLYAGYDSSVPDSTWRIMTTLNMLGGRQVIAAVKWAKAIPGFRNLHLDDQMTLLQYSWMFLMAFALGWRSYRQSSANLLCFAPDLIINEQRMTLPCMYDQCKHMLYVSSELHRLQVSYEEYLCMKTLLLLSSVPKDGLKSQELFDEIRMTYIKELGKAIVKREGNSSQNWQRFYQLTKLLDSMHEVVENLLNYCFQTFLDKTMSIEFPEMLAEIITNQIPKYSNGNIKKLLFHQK

[1] = target: T2, glucocorticoid receptor (GR) (Homo sapiens, UniProt P04150); assay: Ligand binding assay (GR BIND), 3H-dexamethasone displacement, HeLa cell lysate; conditions: calculated using DEX as a reference
T2 construct: endogenous in cells; host or cells: HeLa (ATCC) cell lysate supernatant
T2 sequence (P04150 1-777): T1 sequence (P04150 1-777)
Summary of the method: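 HeLa cell lysate supernatant in TEGM (pH 7.2, molybdate) incubated overnight at 4 °C with 3H-dexamethasone trace (6 nM stock) and serially diluted compound, 2% EtOH final. Bound receptor captured on hydroxylapatite, filtered and counted by scintillation; IC50 calculated with dexamethasone as reference.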

Compound | maximal transactivation activity compared with maximal transrepression activity (human GR) | IC50 [1]
C[C@]12Cc3cnn(-c4ccc(F)cc4)c3C=C1CC[C@@]2(O)CCc1ccccc1CC(=O)NCC(F)(F)F [Example 56, 2-(2-{2-[(4αS,5R)-1-(4-fluorophenyl)-5-hydroxy-4α-methyl-1,4,4α,5,6,7-hexahydrocyclopenta[f]indazol-5-yl]ethyl}phenyl)-N-(2,2,2-trifluoroethyl)acetamide] | maximal transactivation activity less then maximal transrepression activity | < 1 µM
CCNC(=O)c1ccccc1CC[C@]1(O)CCC2=Cc3c(cnn3-c3ccc(F)c(F)c3)C[C@@]21C [Example 51, 2-{2-[(4αS,5R)-1-(3,4-difluorophenyl)-5-hydroxy-4α-methyl-1,4,4α,5,6,7-hexahydrocyclopenta[f]indazol-5-yl]ethyl}-N-ethylbenzamide] | maximal transactivation activity less then maximal transrepression activity | < 1 µM
C[C@]12Cc3cnn(-c4ccc(F)cc4)c3C=C1CC[C@@]2(O)CCc1ccc(Cl)cc1C(N)=O [Example 170, 5-chloro-2-{2-[(4αS,5R)-1-(4-fluorophenyl)-5-hydroxy-4α-methyl-1,4,4α,5,6,7-hexahydrocyclopenta[f]indazol-5-yl]ethyl}benzamide] | maximal transactivation activity less then maximal transrepression activity | < 1 µM
C[C@]12Cc3cnn(-c4ccc(F)cc4)c3C=C1CC[C@@]2(O)CCc1cccc(F)c1[C@@H](NS(=O)(=O)CC(F)(F)F)C(F)(F)F [Example 101, 2,2,2-trifluoro-N-[(1R)-2,2,2-trifluoro-1-(2-fluoro-6-{2-[(4αS,5R)-1-(4-fluorophenyl)-5-hydroxy-4α-methyl-1,4,4α,5,6,7-hexahydrocyclopenta[f]indazol-5-yl]ethyl}phenyl)ethyl]ethanesulfonamide] | maximal transactivation activity less then maximal transrepression activity | < 1 µM
C[C@]12Cc3cnn(-c4ccc(F)cc4)c3C=C1CC[C@@]2(O)CCc1ccccc1N1CCCC1=O [Example 111, 1-(2-{2-[(4αS,5R)-1-(4-fluorophenyl)-5-hydroxy-4α-methyl-1,4,4α,5,6,7-hexahydrocyclopenta[f]indazol-5-yl]ethyl}phenyl)pyrrolidin-2-one] | maximal transactivation activity less then maximal transrepression activity | < 1 µM
C[C@]12Cc3cnn(-c4ccc(F)cc4)c3C=C1CC[C@@]2(O)CCc1cccc(C(F)(F)F)c1C(N)=O [Example 188, 2-{2-[(4αS,5R)-1-(4-fluorophenyl)-5-hydroxy-4α-methyl-1,4,4α,5,6,7-hexahydrocyclopenta[f]indazol-5-yl]ethyl}-6-(trifluoromethyl)benzamide] | maximal transactivation activity less then maximal transrepression activity | < 1 µM
CCNC(=O)c1ccccc1CC[C@]1(O)CCC2=Cc3c(cnn3-c3ccc(F)cc3)C[C@@]21C [Example 2, N-ethyl-2-{2-[(4αS,5R)-1-(4-fluorophenyl)-5-hydroxy-4α-methyl-1,4,4α,5,6,7-hexahydrocyclopenta[f]indazol-5-yl]ethyl}benzamide] | maximal transactivation activity less then maximal transrepression activity | < 1 µM
CCNC(=O)OCc1ccccc1CC[C@]1(O)CCC2=Cc3c(cnn3-c3ccc(F)cc3)C[C@@]21C [Example 9] | maximal transactivation activity less then maximal transrepression activity | < 1 µM
C[C@]12Cc3cnn(-c4ccc(F)cc4)c3C=C1CC[C@@]2(O)CCc1cccc(F)c1NC(=O)C(F)(F)F [Example 126, 2,2,2-trifluoro-N-(2-fluoro-6-{2-[(4αS,5R)-1-(4-fluorophenyl)-5-hydroxy-4α-methyl-1,4,4α,5,6,7-hexahydrocyclopenta[f]indazol-5-yl]ethyl}phenyl)acetamide] | maximal transactivation activity less then maximal transrepression activity | < 1 µM
CCCNC(=O)c1c(F)cccc1CC[C@]1(O)CCC2=Cc3c(cnn3-c3ccc(F)cc3)C[C@@]21C [Example 49, 2-fluoro-6-{2-[(4αS,5R)-1-(4-fluorophenyl)-5-hydroxy-4α-methyl-1,4,4α,5,6,7-hexahydrocyclopenta[f]indazol-5-yl]ethyl}-N-propylbenzamide] | maximal transactivation activity less then maximal transrepression activity | < 1 µM
CC(C)CNC(=O)c1c(F)cccc1CC[C@]1(O)CCC2=Cc3c(cnn3-c3ccc(F)cc3)C[C@@]21C [Example 61, 2-fluoro-6-{2-[(4αS,5R)-1-(4-fluorophenyl)-5-hydroxy-4α-methyl-1,4,4α,5,6,7-hexahydrocyclopenta[f]indazol-5-yl]ethyl}-N-isobutylbenzamide] | maximal transactivation activity less then maximal transrepression activity | < 1 µM
CC(=O)Cc1ccccc1CC[C@]1(O)CCC2=Cc3c(cnn3-c3ccc(F)cc3)C[C@@]21C [Example 157, 1-(2-{2-[(4αS,5R)-1-(4-fluorophenyl)-5-hydroxy-4α-methyl-1,4,4α,5,6,7-hexahydrocyclopenta[f]indazol-5-yl]ethyl}phenyl)acetone] | maximal transactivation activity less then maximal transrepression activity | < 1 µM
C[C@]12Cc3cnn(-c4ccc(F)cc4)c3C=C1CC[C@@]2(O)CCc1cc(F)c(F)cc1C(N)=O [Example 178, 4,5-difluoro-2-{2-[(4αS,5R)-1-(4-fluorophenyl)-5-hydroxy-4α-methyl-1,4,4α,5,6,7-hexahydrocyclopenta[f]indazol-5-yl]ethyl}benzamide] | maximal transactivation activity less then maximal transrepression activity | < 1 µM
C[C@]12Cc3cnn(-c4ccc(F)cc4)c3C=C1CC[C@@]2(O)CCc1cccc(F)c1CN [Example 153, (4αS,5R)-5-{2-[2-(aminomethyl)-3-fluorophenyl]ethyl}-1-(4-fluorophenyl)-4α-methyl-1,4,4α,5,6,7-hexahydrocyclopenta[f]indazol-5-ol] | maximal transactivation activity less then maximal transrepression activity | < 1 µM
C[C@]12Cc3cnn(-c4ccc(F)cc4)c3C=C1CC[C@@]2(O)CCc1ccccc1C1(NS(=O)(=O)C2CC2)CC1 [Example 7, N-[1-(2-{2-[(4αS,5R)-1-(4-Fluorophenyl)-5-hydroxy-4α-methyl-1,4,4α,5,6,7-hexahydrocyclopenta[f]indazol-5-yl]ethyl}phenyl)cyclopropyl]cyclopropanesulfonamide] | maximal transactivation activity less then maximal transrepression activity | < 1 µM
C[C@]12Cc3cnn(-c4ccc(F)cc4)c3C=C1CC[C@@]2(O)CCc1cccc(F)c1[C@H](N)C(F)(F)F [Example 151, (4αS,5R)-5-(2-{2-[(1S)-1-amino-2,2,2-trifluoroethyl]-3-fluorophenyl}ethyl)-1-(4-fluorophenyl)-4α-methyl-1,4,4α,5,6,7-hexahydrocyclopenta[f]indazol-5-ol] | maximal transactivation activity less then maximal transrepression activity | < 1 µM
CCOC(=O)Nc1ccccc1CC[C@]1(O)CCC2=Cc3c(cnn3-c3ccc(F)cc3)C[C@@]21C [Example 12, ethyl (2-{2-[(4αS,5R)-1-(4-fluorophenyl)-5-hydroxy-4α-methyl-1,4,4α,5,6,7-hexahydrocyclopenta[f]indazol-5-yl]ethyl}phenyl)carbamate] | maximal transactivation activity less then maximal transrepression activity | < 1 µM
C[C@@H](NS(=O)(=O)C1CC1)c1ccccc1CC[C@]1(O)CCC2=Cc3c(cnn3-c3ccc(F)cc3)C[C@@]21C [Example 8, N-[(1R)-1-(2-{2-[(4αS,5R)-1-(4-Fluorophenyl)-5-hydroxy-4α-methyl-1,4,4α,5,6,7-hexahydrocyclopenta[f]indazol-5-yl]ethyl}phenyl)ethyl]cyclopropanesulfonamide] | maximal transactivation activity less then maximal transrepression activity | < 1 µM
